In PubChem BioAssay AID488914 (Broad Institute, 2010):
Inconclusive results, whose numbers are uncertain, are shown with a selection of clear calls. Activity calls are given as the source filed them.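 How the source made its calls: active means compounds raising caspase signal whose fitted half-maximal concentration lies at or below their highest valid tested dose; inconclusive means flat curve at 30 to 70% activity, or unreliable fit; inactive means the rest.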

Test: caspase activation in TSA-primed MEWO cells, dose response, A1 (Bcl2-A1) inhibitor project, cell-based, Trichostatin A priming, dry powder (AID 488914)
Conditions: caspase-Glo luminescence, 3 h; at 135 µM (top of the series) unless noted
How it was run: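 Assay system: human MEWO cells with A1 expression, Trichostatin A primed; Amount: 2500 MEWO cells seeded per well; Medium: RPMI-1640 plus 10% FBS; Measured by: Caspase-Glo luminescence, reagent diluted 1:1 in 50 mM HEPES; Read-out: caspase activity from luminescence signal.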

SMILES	outcome	caspase activation
CC1(C)CCC(c2ccc(Cl)cc2)=C(CN2CCN(c3ccc(C(=O)NS(=O)(=O)c4ccc(N[C@H](CCN5CCOCC5)CSc5ccccc5)c(S(=O)(=O)C(F)(F)F)c4)cc3)CC2)C1	inconclusive	
O=C(CCl)N=c1sccn1Cc1ccccc1Cl		inactive: 3.57%
CCc1cc2c(=O)c(-c3cnn(-c4ccccc4)c3)c(C)oc2cc1OCC(=O)Nc1cccc(C)c1		inconclusive: 80.7% [at 90 µM]
CCc1nnc(NC(=O)c2nc(S(=O)(=O)Cc3ccccc3)ncc2Cl)s1		inactive: -6.87%
Cc1ccc(CS(=O)(=O)c2ncc(Cl)c(C(=O)Nc3nnc(C(C)C)s3)n2)cc1		inactive: -9.39%
